Measurements taken from the odorant receptor screen of Mainland et al. (2015).
Several values for one entry are separate records, joined by “and”; a condition that tells them apart may be missing. Equal values may be shown once. The list shows a part of the results. Single wells; the ratio to wells without odorant was worked out here, and repeats agree poorly.

System: OR4K13 clone 1266
Assay: odorant receptor activation (CRE luciferase / Renilla) (fold of no-odor wells); higher = more activation
Details: 100 µM

Structure (SMILES)	odorant receptor activation
CCOc1cc(C=O)ccc1O [ethyl vanillin]	1.35 and 1.16
CCC(C)=O [2-butanone]	1.11
CS [methanethiol]	0.862
CCCCOC(C)=O [butyl acetate]	0.769

System: OR4K14 clone 1276
Assay: as above
Details: 100 µM

Structure (SMILES)	odorant receptor activation
CCOc1cc(C=O)ccc1O [ethyl vanillin]	0.823 and 1.04
CCC(C)=O [2-butanone]	0.801
CS [methanethiol]	0.995
CCCCOC(C)=O [butyl acetate]	0.821

System: OR4K15 N65S/E88V/S93A/A231E/L280P/I286M clone 1566
Assay: as above
Details: 100 µM

Structure (SMILES)	odorant receptor activation
CCOc1cc(C=O)ccc1O [ethyl vanillin]	1.02
CCC(C)=O [2-butanone]	1.03
CS [methanethiol]	0.875
CCCCOC(C)=O [butyl acetate]	0.763

System: OR4K17 clone 1319
Assay: as above
Details: 100 µM

Structure (SMILES)	odorant receptor activation
CCOc1cc(C=O)ccc1O [ethyl vanillin]	1.28 and 1.16
CCC(C)=O [2-butanone]	0.903
CS [methanethiol]	0.816
CCCCOC(C)=O [butyl acetate]	0.879
